Paper PMC10545698
These are yes or no findings as the source states them, for the method shown. In cells and extracts the contact can be indirect. Some entries that bind do so weakly or less than the wild type.

Sequences of proteins named here, by UniProt entry; tags and fusion partners are left off.
UniProt Q9UHI6: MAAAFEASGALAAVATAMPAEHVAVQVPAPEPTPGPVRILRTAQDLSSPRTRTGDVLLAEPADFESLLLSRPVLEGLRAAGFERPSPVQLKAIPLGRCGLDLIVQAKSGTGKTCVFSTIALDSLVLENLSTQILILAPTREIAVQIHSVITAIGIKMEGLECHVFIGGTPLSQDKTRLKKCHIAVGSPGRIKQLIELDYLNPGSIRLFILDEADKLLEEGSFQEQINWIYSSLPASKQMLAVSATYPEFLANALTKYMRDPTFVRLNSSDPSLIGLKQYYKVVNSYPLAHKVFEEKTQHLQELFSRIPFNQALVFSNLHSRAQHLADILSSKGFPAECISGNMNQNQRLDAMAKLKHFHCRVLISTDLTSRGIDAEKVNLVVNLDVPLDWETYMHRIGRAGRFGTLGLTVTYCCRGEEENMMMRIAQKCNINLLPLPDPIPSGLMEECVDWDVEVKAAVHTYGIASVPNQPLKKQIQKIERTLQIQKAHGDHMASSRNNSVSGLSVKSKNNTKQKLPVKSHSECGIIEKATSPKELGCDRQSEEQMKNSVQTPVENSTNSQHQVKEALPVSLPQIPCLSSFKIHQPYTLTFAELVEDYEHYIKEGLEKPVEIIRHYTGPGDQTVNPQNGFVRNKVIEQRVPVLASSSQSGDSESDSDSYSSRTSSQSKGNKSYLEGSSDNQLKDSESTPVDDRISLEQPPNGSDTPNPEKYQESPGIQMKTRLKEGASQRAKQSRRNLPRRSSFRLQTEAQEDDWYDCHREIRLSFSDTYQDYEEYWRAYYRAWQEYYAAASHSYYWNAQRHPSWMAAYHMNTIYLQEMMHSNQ

Target: T1, WD repeat domain 4 (WDR4) (human (endogenous in UM-UC-3 and 5637)) (UniProt P57081)
T1 sequence: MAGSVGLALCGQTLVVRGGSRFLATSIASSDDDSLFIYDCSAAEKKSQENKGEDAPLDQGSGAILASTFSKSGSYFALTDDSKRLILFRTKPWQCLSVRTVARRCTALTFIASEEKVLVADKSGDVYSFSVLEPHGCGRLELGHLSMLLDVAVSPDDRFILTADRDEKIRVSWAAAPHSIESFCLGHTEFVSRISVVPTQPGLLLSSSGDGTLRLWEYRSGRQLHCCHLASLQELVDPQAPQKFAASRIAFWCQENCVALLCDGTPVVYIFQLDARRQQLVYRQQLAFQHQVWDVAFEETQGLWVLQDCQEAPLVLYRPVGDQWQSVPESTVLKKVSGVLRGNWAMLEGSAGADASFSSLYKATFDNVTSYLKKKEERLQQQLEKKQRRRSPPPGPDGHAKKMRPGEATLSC
Assay: co-IP; endogenous proteins immunoprecipitated from UM-UC-3 and 5637 cell lysates with anti-WDR4 or anti-DDX20 antibody (2 ug, overnight at 4 C; IgG as control; Protein A/G magnetic beads), Western blot; also in WDR4 KD and Control KD UM-UC-3 cells

binding: binds
Substance: DEAD-box helicase 20 (DDX20) (from UniProt Q9UHI6 1-824)
